Data as given in PubChem BioAssay AID504774 (Drosophila RNAi Screening Center, 2011).

Purpose: 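Genes required for cells to withstand methyl methanesulphonate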 (primary screen)
System: Drosophila Kc167 cells
Reagents: long dsRNA against Drosophila genes, about 0.25 µg dsRNA per well
Timing: about 6 days: 3 days knock-down, then 3 days with or without MMS
Treatment: methyl methanesulphonate 0.004% (w/v) for 3 days after knock-down
Detection: 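ATP-dependent luminescence as a measure of live cells in MMS-exposed wells, quantile normalised within each plate, with replicate values also given as a mean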
Direction: mean viability with MMS and viability with MMS: higher = more surviving cells after MMS
The screen tested about 23,000 reagents; below is an unselected part of those that have a named target and a result. 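Values are quantile-normalised luminescence on an arbitrary scale; higher means more cells surviving MMS.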 A plus sign joins genes that one reagent is predicted to hit. Not all columns of the deposit are shown. No sequences are given here.

CG42827 + CG42828 [DRSC16116] showed mean viability with MMS 3.35e6; viability with MMS, replicate 1 = 3.92e6.
Silencing of sinu (GeneID 46187) [DRSC09752] came out at: mean viability with MMS 2.04e6; viability with MMS, replicate 1 = 4.23e6.
Myo31DF (GeneID 34445) [DRSC03376] scored mean viability with MMS 3.51e6; viability with MMS, replicate 1 = 3.96e6.
With knock-down of Myo31DF (GeneID 34445) [DRSC22702], the record shows mean viability with MMS 3.30e6; viability with MMS, replicate 1 = 3.85e6.
CG18476 (GeneID 41404) [DRSC15281] gave mean viability with MMS 3.67e6; viability with MMS, replicate 1 = 4.20e6.
Against pita (GeneID 37730) [DRSC04006] the deposit lists mean viability with MMS 3.83e6; viability with MMS, replicate 1 = 4.53e6.
Knock-down of pita (GeneID 37730) [DRSC04435] gave: mean viability with MMS 3.66e6; viability with MMS, replicate 1 = 4.09e6.
With knock-down of Aldh7A1 (GeneID 40097) [DRSC11083], the record shows mean viability with MMS 3.48e6; viability with MMS, replicate 1 = 3.95e6.
Against rogdi (GeneID 39917) [DRSC10906], the entry reads mean viability with MMS 3.48e6; viability with MMS, replicate 1 = 4.01e6.
Spn28F (GeneID 49807) [DRSC03615] gave mean viability with MMS 3.65e6; viability with MMS, replicate 1 = 4.03e6.
With knock-down of CG9503 (GeneID 32424) [DRSC20186], the record shows mean viability with MMS 3.60e6; viability with MMS, replicate 1 = 4.01e6.
CG9503 (GeneID 32424) [DRSC21766] gave mean viability with MMS 3.44e6; viability with MMS, replicate 1 = 3.89e6.
Against CG7768 (GeneID 39573) [DRSC10914], the values are mean viability with MMS 3.68e6; viability with MMS, replicate 1 = 4.23e6.
CG34025 (GeneID 3885633) [DRSC08014] gave mean viability with MMS 3.59e6; viability with MMS, replicate 1 = 4.19e6.

Sorted by “mean viability with MMS” (lowest first): 2 of the entries above
rogdi (GeneID 39917) [DRSC10906]: mean viability with MMS = 3.48e6; viability with MMS, replicate 1 = 4.01e6
Spn28F (GeneID 49807) [DRSC03615]: mean viability with MMS = 3.65e6; viability with MMS, replicate 1 = 4.03e6

More results follow.
Silencing of Nek2 (GeneID 31696) [DRSC18124] resulted in: mean viability with MMS 3.32e6; viability with MMS, replicate 1 = 4.20e6.
Polr3F (GeneID 42619) [DRSC15785] scored mean viability with MMS 3.25e6; viability with MMS, replicate 1 = 3.70e6.
CG31294 (GeneID 318666) [DRSC22217] showed mean viability with MMS 3.60e6; viability with MMS, replicate 1 = 4.02e6.
After knock-down of ouib (GeneID 41039) [DRSC14376], the record shows mean viability with MMS 3.41e6; viability with MMS, replicate 1 = 3.90e6.
Pect (GeneID 34716) [DRSC02867] scored mean viability with MMS 3.72e6; viability with MMS, replicate 1 = 4.36e6.
Silencing of Pect (GeneID 34716) [DRSC02868] resulted in: mean viability with MMS 3.28e6; viability with MMS, replicate 1 = 3.68e6.
Dok (GeneID 31667) [DRSC18204] gave mean viability with MMS 3.04e6; viability with MMS, replicate 1 = 3.64e6.
Rpp21 (GeneID 318857) [DRSC22480] scored mean viability with MMS 3.75e6; viability with MMS, replicate 1 = 4.17e6.
After knock-down of Zw (GeneID 32974) [DRSC20303] the results were mean viability with MMS 3.49e6; viability with MMS, replicate 1 = 3.92e6.
Silencing of Rbp6 (GeneID 39919) [DRSC09462] gave: mean viability with MMS 3.63e6; viability with MMS, replicate 1 = 4.08e6.
Knock-down of Rbp6 (GeneID 39919) [DRSC09464] came out at: mean viability with MMS 3.45e6; viability with MMS, replicate 1 = 3.91e6.
Against Rbp6 (GeneID 39919) [DRSC10072], the entry reads mean viability with MMS 3.42e6; viability with MMS, replicate 1 = 3.76e6.
For Rbp6 (GeneID 39919) [DRSC10073] the deposit lists mean viability with MMS 3.44e6; viability with MMS, replicate 1 = 3.74e6.
Depletion of Rbp6 (GeneID 39919) [DRSC10662] came out at: mean viability with MMS 3.43e6; viability with MMS, replicate 1 = 3.78e6.
Silencing of Bsg (GeneID 318841) [DRSC01010] came out at: mean viability with MMS 3.30e6; viability with MMS, replicate 1 = 3.74e6.
Knock-down of Bsg (GeneID 318841) [DRSC01011] resulted in: mean viability with MMS 3.84e6; viability with MMS, replicate 1 = 4.41e6.
For CG15136 (GeneID 35033) [DRSC02436] the deposit lists mean viability with MMS 3.50e6; viability with MMS, replicate 1 = 4.06e6.
CG14270 (GeneID 31319) [DRSC17913] gave mean viability with MMS 3.38e6; viability with MMS, replicate 1 = 3.79e6.
Against Gr10b (GeneID 32085) [DRSC19477], the entry reads mean viability with MMS 3.44e6; viability with MMS, replicate 1 = 3.88e6.
With knock-down of Ugt37B1 (GeneID 53584) [DRSC03225] the results were mean viability with MMS 3.51e6; viability with MMS, replicate 1 = 3.98e6.
For arg (GeneID 46717) [DRSC18737], the values are mean viability with MMS 3.56e6; viability with MMS, replicate 1 = 3.92e6.
